Measurements reported in PubChem BioAssay AID1671195 (Yale University, 2021)
Here is one part, drawn at random, of about 22,000 reagents. In the full data, about 1,510 (6.9%) are marked active. 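Active includes knockdowns raising or lowering LDL uptake; positive z-scores mean more uptake, negative mean less.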 Unmarked entries are inactive. The numbers tell different reagents against one gene apart.

- Assay: 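Regulators of LDL receptor activity judged by labelled LDL uptake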 (primary screen)
- System: human Huh7 hepatoma cells
- Reagent: siRNA pool against human genes, 18 nM
- Time to read-out: about 2 to 2.5 days of knockdown, then 8 h LDL uptake
- Challenge: DiI-labelled LDL at 30 µg/ml for 8 h, in lipoprotein-deficient serum medium
- Read-out: 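Per-cell DiI-LDL intensity by automated imaging; well means scaled to the plate median and given as a robust z-score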
- Reading the numbers: robust z-score: higher = more LDL uptake after knockdown
- Active means: 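Active when two or more replicates show a robust z-score above 2 or below -2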

gene symbol	pool no.	robust z-score, replicate 1	robust z-score, replicate 2	robust z-score, replicate 3
KBTBD12	1	-0.886	-0.78	-0.4
LOC401254 (retired record)	1	0.631	-1.82	0.448
ZNF624	1	3.85 (active)	3.37	3.11
NUMA1	1	0.405	0.993	0.0361
GHR	1	0.849	1	0.997
LDB2	1	1.16	-0.397	-0.289
CPSF2	1	3.68 (active)	2.27	3.06
MGC40069 (retired record)	1	-0.568	-0.827	-0.411
ADSS2	1	0.0958	-0.121	0.852
LOC441370 (retired record)	1	2.41	1.18	0.661
DNASE1	1	0.522	0.618	-0.165
TOR1B	1	0.921	1.37	-0.626
MRPL33	1	0.691	0.992	1.28
RRAGC	1	-1.16	-0.235	-0.0458
TPI1	1	0.178	1.09	0.976
GOT2	1	-0.786	0.624	-0.889
SPACDR	1	1.64	1.6	1.25
ZNF829	1	-0.0241	0.25	0.0569
JUNB	1	-0.776	-0.612	-1.07
KCTD20	1	1.06 (active)	2.02	2.16
SCYL2	1	1.91 (active)	1.83	2.27
LOC387894 (retired record)	1	-0.209	-0.596	-0.409
CAGE1	1	0.659	1.3	1.07
SULT1C3	1	2.83	1.15	-0.0767
SST	1	-0.181	0.384	1.82
BAALC	1	2.4	1.81	1.45
ODAD1	1	-0.985	-0.554	-0.699
LOC439948 (retired record)	1	1.13	0.933	0.693
LOC390846	1	-0.127	-0.488	-0.0273
LINC00470	1	-0.0663	-0.628	-0.63
IFITM3P8	1	1.47	1.88	1.34
UQCRFS1	1	0.264	-0.227	0.358
FYB2	1	-0.412	0.855	0.576
CCDC33	1	1.4	0.822	0.912
CNBD2	1	-1.49	-2.24	-1.54
CDH11	1	-0.221	0.421	0.409
LRRC31	1	-1.51	-1.37	-1.47
MANSC1	1	-1.05	1.18	-0.799
LINC00115	1	-0.485	-0.14	-0.303
OIP5	1	0.632	-0.889	1.12
LY6S-AS1	1	-1.89 (active)	-1.98	-2.05
TRAF3IP2	1	-0.111	0.516	0.597
PLEKHA8	1	-0.783	-0.922	-1.04
SARS1	1	-0.2	-2.78	-1.8
RNPEP	1	2.01 (active)	1.22	1.99
LOC440494 (retired record)	1	-0.326	0.182	0.114
GIPR	1	-0.633	0.441	-0.0633
SWT1	1	-0.864	-1.51	-0.112
NUMB	1	0.214	0.73	0.246
NUMB	2	1.12	-0.635	0.351
HPS1	1	-0.44	-0.842	-0.385
KCNK10	1	-0.745	-0.909	-0.222
MMP10	1	-0.355	0.838	0.473
SP5	1	0.598	1.08	0.987
SLC16A1	1	-0.832	-0.888	-0.726
UBQLN4P1	1	-0.126	0.0695	0.25
OSER1	1	0.422	-0.519	-0.0378
BANP	1	-0.883	-1.18	-2.37
ABCB11	1	0.609	-1.68	0.164
RMND1	1	0.242	-0.723	-1.28
NAA30	1	1.07 (active)	2.05	2.28
GSX1	1	0.0395	0.382	-0.377
ISLR2-AS1	1	0.0881	0.269	0.351
CDKN3	1	0.499	1.29	0.905
COX17	1	-0.758	-1.2	-0.297
PLIN5	1	-1.04	-0.989	-1.02
CCNQ	1	-1.02	-0.132	0.162
MT4	1	1.83	1.54	2.04

6 entries from above, arranged by “robust z-score, replicate 3”, low to high.
gene symbol	pool no.	robust z-score, replicate 1	robust z-score, replicate 2	robust z-score, replicate 3
RMND1	1	0.242	-0.723	-1.28
GSX1	1	0.0395	0.382	-0.377
ABCB11	1	0.609	-1.68	0.164
ISLR2-AS1	1	0.0881	0.269	0.351
CDKN3	1	0.499	1.29	0.905
NAA30	1	1.07 (active)	2.05	2.28
